Reference: the M2OR odorant receptor database
The list shows a part of the results, in another mix than the full data. Calls are pooled over several reports, among them a noisy single-well screen. The list shows a part of the results.

How the values were obtained:
Conditions in all cases: stereoisomer not certain
[1] = tested on: T1, OR1L1
T1 sequence (whole entry): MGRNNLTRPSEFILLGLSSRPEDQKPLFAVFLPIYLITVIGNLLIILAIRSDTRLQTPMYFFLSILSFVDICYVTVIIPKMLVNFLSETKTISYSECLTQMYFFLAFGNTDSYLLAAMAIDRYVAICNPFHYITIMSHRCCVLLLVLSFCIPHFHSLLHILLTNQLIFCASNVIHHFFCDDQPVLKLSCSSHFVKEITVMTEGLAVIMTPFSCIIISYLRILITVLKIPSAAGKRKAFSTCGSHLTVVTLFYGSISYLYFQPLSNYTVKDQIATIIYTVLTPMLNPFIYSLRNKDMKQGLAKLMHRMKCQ
How it was run: (§1)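 Values were gathered from published papers (main text and supplementary material), with extra details requested from the original authors when needed, and checked for typos and inconsistencies. Each receptor–molecule pair is called responsive (active) if the original authors judged the measured signal statistically different from baseline, and non-responsive (inactive) otherwise. Assay methods varied by source, often transient mammalian cell-line luciferase assays. Recorded details include cell line, G-protein, co-transfected protein and tags.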

[2] = biological target: T2, OR1L3 (Homo sapiens) (UniProt Q8NH93)
T2 sequence (whole entry): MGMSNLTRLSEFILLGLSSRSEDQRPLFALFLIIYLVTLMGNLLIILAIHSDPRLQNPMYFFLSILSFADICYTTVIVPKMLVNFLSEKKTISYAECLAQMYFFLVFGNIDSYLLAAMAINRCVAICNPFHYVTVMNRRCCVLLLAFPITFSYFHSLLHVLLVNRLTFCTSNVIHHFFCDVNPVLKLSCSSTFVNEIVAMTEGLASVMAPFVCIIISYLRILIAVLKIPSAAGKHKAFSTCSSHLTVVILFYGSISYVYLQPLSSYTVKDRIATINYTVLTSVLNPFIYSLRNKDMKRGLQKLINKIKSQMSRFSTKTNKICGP
How it was run: as §1

[3] = tested on: T3, OR1L4
T3 sequence (whole entry): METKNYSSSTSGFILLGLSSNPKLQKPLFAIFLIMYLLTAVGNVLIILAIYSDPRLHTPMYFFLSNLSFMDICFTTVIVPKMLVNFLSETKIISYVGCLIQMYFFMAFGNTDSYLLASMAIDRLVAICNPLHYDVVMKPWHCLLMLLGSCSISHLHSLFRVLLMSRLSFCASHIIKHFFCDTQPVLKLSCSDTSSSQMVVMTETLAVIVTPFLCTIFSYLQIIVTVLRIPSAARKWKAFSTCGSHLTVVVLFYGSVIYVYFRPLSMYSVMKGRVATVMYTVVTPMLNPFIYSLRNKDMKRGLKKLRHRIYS
How it was run: as §1

[4] = tested on: T4, OR1L6
T4 sequence (whole entry): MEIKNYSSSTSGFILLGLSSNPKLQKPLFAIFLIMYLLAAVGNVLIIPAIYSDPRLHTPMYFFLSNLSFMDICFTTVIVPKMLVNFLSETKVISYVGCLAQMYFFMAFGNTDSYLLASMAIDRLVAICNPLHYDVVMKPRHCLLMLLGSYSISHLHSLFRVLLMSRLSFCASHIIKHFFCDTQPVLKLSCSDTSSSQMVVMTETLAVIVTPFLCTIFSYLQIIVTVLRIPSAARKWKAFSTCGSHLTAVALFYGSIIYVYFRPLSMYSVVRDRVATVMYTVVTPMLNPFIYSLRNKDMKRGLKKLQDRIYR
How it was run: as §1

[5] = biological target: T5, OR1L8 (Homo sapiens) (UniProt Q8NGR8)
T5 sequence (whole entry): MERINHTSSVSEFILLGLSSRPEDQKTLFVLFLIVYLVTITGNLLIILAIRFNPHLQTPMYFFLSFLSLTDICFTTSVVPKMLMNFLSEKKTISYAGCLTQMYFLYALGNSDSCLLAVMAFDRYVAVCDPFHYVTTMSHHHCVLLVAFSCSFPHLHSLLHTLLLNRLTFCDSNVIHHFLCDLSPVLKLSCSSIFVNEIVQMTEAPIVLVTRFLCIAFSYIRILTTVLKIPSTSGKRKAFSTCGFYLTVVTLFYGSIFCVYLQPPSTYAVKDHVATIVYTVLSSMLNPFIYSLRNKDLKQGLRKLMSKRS
How it was run: as §1

[6] = tested on: T6, OR1M1
T6 sequence (whole entry): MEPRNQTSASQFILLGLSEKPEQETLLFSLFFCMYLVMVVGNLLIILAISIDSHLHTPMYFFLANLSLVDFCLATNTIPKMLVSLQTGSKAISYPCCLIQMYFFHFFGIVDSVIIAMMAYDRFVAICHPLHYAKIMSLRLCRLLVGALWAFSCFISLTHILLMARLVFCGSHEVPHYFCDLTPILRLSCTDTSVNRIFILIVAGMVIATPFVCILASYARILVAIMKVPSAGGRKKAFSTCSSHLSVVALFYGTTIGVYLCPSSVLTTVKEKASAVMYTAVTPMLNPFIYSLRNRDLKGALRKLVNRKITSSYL
How it was run: as §1

[7] = biological target: T7, OR1N1 (Homo sapiens) (UniProt Q8NGS0)
T7 sequence (whole entry): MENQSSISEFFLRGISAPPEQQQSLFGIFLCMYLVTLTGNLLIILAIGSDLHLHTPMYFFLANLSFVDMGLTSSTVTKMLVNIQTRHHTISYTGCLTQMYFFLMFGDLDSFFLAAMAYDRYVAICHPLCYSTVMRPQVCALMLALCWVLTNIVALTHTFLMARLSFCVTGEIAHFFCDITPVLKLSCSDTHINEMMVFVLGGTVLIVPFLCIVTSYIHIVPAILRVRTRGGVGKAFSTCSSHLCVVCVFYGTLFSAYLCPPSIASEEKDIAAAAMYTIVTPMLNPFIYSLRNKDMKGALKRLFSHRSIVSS
How it was run: as §1

[8] = biological target: T8, OR1N2 (Homo sapiens) (UniProt Q8NGR9)
T8 sequence (whole entry): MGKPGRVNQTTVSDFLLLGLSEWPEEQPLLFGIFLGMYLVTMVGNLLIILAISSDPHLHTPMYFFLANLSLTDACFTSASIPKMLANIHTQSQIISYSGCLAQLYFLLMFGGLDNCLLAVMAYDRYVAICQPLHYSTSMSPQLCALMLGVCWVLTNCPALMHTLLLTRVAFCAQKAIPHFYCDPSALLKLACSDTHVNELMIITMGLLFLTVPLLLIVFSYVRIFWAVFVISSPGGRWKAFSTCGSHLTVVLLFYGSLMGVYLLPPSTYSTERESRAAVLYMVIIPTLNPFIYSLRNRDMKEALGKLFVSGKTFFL
How it was run: as §1

[9] = tested on: T9, OR1N2
T9 sequence (whole entry): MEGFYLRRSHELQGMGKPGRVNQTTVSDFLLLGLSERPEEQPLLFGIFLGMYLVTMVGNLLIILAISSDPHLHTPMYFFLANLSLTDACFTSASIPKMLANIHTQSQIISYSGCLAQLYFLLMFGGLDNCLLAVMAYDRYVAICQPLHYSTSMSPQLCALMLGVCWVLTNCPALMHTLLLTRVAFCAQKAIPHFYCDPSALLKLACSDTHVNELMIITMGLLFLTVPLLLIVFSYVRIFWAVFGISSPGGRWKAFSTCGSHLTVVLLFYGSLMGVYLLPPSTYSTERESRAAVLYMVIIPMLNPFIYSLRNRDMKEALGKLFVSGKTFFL
How it was run: as §1

[10] = tested on: T10, OR1Q1
T10 sequence (whole entry): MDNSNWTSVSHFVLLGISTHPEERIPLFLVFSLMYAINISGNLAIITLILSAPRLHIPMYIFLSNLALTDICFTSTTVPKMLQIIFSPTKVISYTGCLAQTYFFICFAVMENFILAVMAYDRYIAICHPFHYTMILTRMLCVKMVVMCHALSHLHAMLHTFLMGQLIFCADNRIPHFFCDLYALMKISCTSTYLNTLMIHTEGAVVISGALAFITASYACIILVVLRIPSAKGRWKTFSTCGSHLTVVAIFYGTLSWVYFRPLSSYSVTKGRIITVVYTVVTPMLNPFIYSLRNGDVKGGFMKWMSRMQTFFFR
How it was run: as §1

[11] = tested on: T11, OR1S1
T11 sequence (whole entry): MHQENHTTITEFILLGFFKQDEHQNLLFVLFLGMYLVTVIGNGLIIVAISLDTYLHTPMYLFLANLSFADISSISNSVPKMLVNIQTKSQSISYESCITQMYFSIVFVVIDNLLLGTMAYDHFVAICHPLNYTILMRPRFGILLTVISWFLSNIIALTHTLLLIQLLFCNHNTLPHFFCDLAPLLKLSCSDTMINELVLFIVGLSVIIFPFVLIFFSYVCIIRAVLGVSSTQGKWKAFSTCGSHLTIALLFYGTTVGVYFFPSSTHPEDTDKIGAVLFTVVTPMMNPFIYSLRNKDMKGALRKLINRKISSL
How it was run: as §1

[12] = tested on: T12, OR1S2
T12 sequence (whole entry): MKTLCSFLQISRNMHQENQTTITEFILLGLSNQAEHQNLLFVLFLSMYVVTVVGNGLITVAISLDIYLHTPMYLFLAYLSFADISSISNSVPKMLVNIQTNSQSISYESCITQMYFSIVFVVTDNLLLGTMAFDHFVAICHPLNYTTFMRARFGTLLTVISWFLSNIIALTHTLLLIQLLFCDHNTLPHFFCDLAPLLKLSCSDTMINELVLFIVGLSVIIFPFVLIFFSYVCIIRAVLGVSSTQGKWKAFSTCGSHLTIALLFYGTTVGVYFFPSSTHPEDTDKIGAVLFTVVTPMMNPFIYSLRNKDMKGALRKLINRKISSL
How it was run: as §1

[13] = biological target: T13, OR2A12 (Homo sapiens) (UniProt Q8NGT7)
T13 sequence (whole entry): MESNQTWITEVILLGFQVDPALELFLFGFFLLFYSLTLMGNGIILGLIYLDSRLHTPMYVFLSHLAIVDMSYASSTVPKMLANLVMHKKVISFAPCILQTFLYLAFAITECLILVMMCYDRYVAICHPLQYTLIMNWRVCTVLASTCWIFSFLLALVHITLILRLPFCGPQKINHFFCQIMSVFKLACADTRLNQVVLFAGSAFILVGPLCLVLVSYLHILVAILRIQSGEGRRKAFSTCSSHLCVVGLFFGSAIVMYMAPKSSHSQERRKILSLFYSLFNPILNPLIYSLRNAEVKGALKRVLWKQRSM
How it was run: as §1

[14] = biological target: T14, OR2A1 (Homo sapiens) (UniProt Q8NGT9)
T14 sequence (whole entry): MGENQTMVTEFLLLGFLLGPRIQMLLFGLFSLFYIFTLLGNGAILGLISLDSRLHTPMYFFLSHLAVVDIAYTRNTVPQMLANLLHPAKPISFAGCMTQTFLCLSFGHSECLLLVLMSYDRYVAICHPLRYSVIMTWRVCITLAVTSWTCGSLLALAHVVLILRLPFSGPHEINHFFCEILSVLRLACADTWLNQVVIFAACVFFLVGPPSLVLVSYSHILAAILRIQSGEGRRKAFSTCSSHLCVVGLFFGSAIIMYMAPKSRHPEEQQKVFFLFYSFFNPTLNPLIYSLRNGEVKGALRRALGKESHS
How it was run: as §1

Row | Compound | odorant receptor agonist call [1] | odorant receptor agonist call [2] | odorant receptor agonist call [3] | odorant receptor agonist call [4] | odorant receptor agonist call [5] | odorant receptor agonist call [6] | odorant receptor agonist call [7] | odorant receptor agonist call [8] | odorant receptor agonist call [9] | odorant receptor agonist call [10] | odorant receptor agonist call [11] | odorant receptor agonist call [12] | odorant receptor agonist call [13] | odorant receptor agonist call [14]
1 | CC(C)CCC(=O)O | inactive | inactive | inactive | inactive | inactive | inactive | inactive | inactive | inactive | inactive | inactive | inactive | inactive | 
2 | CCCCCCCCCCC=O | inactive | inactive | inactive | inactive | inactive | inactive | inactive | inactive | inactive | inactive | inactive | inactive | inactive | inactive
3 | CC(C)C=O | inactive | inactive | inactive | inactive | inactive | inactive | inactive | inactive | inactive | inactive | inactive | inactive | inactive | 
4 | CC(=O)c1ccccc1 | inactive | inactive | inactive |  | inactive | inactive | inactive | inactive | inactive | inactive |  | inactive | inactive | 
5 | C=C(C)C1CCC2=CC(=O)CC(C)C2(C)C1 (stereo not given) |  |  |  |  |  |  |  |  |  |  | active |  |  | 
6 | O=C1CCCCC1 | inactive | active | active |  | inactive | inactive | inactive | inactive | inactive | inactive |  | inactive | active | 
7 | CC(C)(C)c1ccc(CCC=O)cc1 | inactive | inactive | inactive | inactive | inactive | inactive | inactive | inactive | inactive | inactive | inactive | inactive | inactive | 
8 | CCCCCCCCC=O |  |  |  |  |  |  |  |  |  |  |  |  |  | inactive
9 | O=C1CCCCCCCCCCCCCCO1 | inactive | inactive | inactive | inactive | inactive | inactive | inactive | inactive | inactive | inactive | inactive | inactive | inactive | 
10 | CC(C)(O)CCCC1=CCC(C=O)CC1 (stereo not given) |  |  |  |  |  |  |  |  |  |  | active |  |  | inactive
11 | CC1=NC(C)SC1C (stereo not given) | inactive | inactive | inactive |  | inactive | inactive | inactive | inactive | inactive | inactive |  | inactive | active | 
12 | CCCCCOC(C)=O | inactive | active | active |  | active | inactive | inactive | inactive | inactive | inactive | inactive | inactive | inactive | 
13 | O=C1CCCCCCCCCCCC(=O)OCCO1 | inactive | inactive | inactive | inactive | inactive | inactive | inactive | inactive | inactive | inactive | inactive | active | inactive | 
14 | CC12CCC(C1)C(C)(C)C2=O (stereo not given) | inactive | inactive | inactive | inactive | inactive | inactive | inactive | inactive | inactive | inactive | inactive | inactive | inactive | 
15 | COC(=O)c1ccccc1 | inactive | inactive | inactive |  | inactive | inactive | inactive | inactive | inactive | inactive |  | inactive | active | 
16 | CCCCCCOC(=O)CCC | inactive | inactive | inactive | inactive | inactive | active | inactive | inactive | inactive | inactive | inactive | inactive | inactive | 

2 records picked at random from the list so far, as already listed:
Row | Compound | odorant receptor agonist call [1] | odorant receptor agonist call [2] | odorant receptor agonist call [3] | odorant receptor agonist call [4] | odorant receptor agonist call [5] | odorant receptor agonist call [6] | odorant receptor agonist call [7] | odorant receptor agonist call [8] | odorant receptor agonist call [9] | odorant receptor agonist call [10] | odorant receptor agonist call [11] | odorant receptor agonist call [12] | odorant receptor agonist call [13] | odorant receptor agonist call [14]
6 | O=C1CCCCC1 | inactive | active | active |  | inactive | inactive | inactive | inactive | inactive | inactive |  | inactive | active | 
10 | CC(C)(O)CCCC1=CCC(C=O)CC1 (stereo not given) |  |  |  |  |  |  |  |  |  |  | active |  |  | inactive
